PubChem BioAssay AID504744 | Drosophila RNAi Screening Center, 2011

- Test: 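Identify dsRNAs that increase or decrease phospho-dAkt after insulin treatment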 (primary screen)
- System: Drosophila Kc167 cells
- Reagents: long dsRNA against Drosophila genes, 250 ng dsRNA per well of a 384-well plate
- Duration: 3 days of knock-down, then overnight serum-free starvation before stimulation
- Conditions: bovine insulin at 387 nM for 10 minutes after 12 h without serum
- Detection: 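In-cell antibody fluorescence for phospho-dAkt in each well over DNA-dye signal, with log2 residuals expressed as z-scores adjusted for cell count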
- Hit rule: 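Under insulin, a gene counts as a hit if the average z-score of two replicates lies above 2.5 or below -2.5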
In all, the deposit lists about 23,000 reagents; this is an unselected part of those with a known target gene and a result. Of all reagents, 98 (0.43%) are marked active. 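Only hit calls are given; the phospho-dAkt signals, z-scores and hit direction were not deposited.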 Names joined by + are all predicted targets of the reagent.

no.	Gene	DRSC id	Outcome
1	CG12520	DRSC09892	inactive
2	CG5445	DRSC19943	inactive
3	CG11145	DRSC06049	inactive
4	GstD10	DRSC15346	inactive
5	CG34461	DRSC10767	inactive
6	CG14421	DRSC17918	inactive
7	sta	DRSC18838	inactive
8	Ost48	DRSC18693	inactive
9	Rint1	DRSC11010	inactive
10	CG11368	DRSC17778	inactive
11	CG5255	DRSC15754	inactive
12	Hnf4	DRSC01032	inactive
13	Hnf4	DRSC03344	inactive
14	CG13713	DRSC08322	inactive
15	CG8079	DRSC07070	inactive
16	CG8079	DRSC07071	inactive
17	noi	DRSC12383	inactive
18	Pfdn2	DRSC10618	inactive
19	Rsbp15	DRSC14176	inactive
20	CG1909	DRSC17150	inactive
21	CG17199	DRSC15192	inactive
22	Tom7	DRSC05135	inactive
23	Tom7	DRSC07113	inactive
24	CG1239	DRSC12204	inactive
25	CG13021	DRSC17893	inactive
26	CG32718	DRSC17538	inactive
27	CG33272	DRSC09116	inactive
28	Gr32a	DRSC02400	inactive
29	stan	DRSC05234	inactive
30	stan	DRSC07697	inactive
31	CG7309	DRSC03045	inactive
32	CG9393	DRSC16486	inactive
33	Leash	DRSC15617	inactive
34	CG8745	DRSC11033	inactive
35	CG8745	DRSC11034	inactive
36	CG8745	DRSC22741	inactive
37	Mical	DRSC14349	inactive
38	Mical	DRSC14351	inactive
39	Mical	DRSC15365	inactive
40	Mical	DRSC15366	inactive
41	CG7724	DRSC10905	inactive
42	CG4382	DRSC02743	inactive
43	CG15422	DRSC00436	inactive
44	nAChRalpha4	DRSC11925	inactive
45	Art8	DRSC02530	inactive
46	CG5321	DRSC19940	inactive
47	CG5321	DRSC22802	inactive
48	CG14866	DRSC14989	inactive
49	Adgf-C	DRSC16473	inactive
50	Abl	DRSC09661	inactive
51	Atac3	DRSC08579	inactive
52	eIF2Bgamma	DRSC07100	inactive
53	Usp2	DRSC20590	inactive
54	Usp2	DRSC20632	inactive
55	Usp2	DRSC20633	inactive
56	CG4271	DRSC00649	inactive
57	CG42262 (retired record)	DRSC17628	inactive
58	CG42262 (retired record)	DRSC17974	inactive
59	CG8584	DRSC07217	inactive
60	CG30270	DRSC22890	inactive
61	Pop5	DRSC10074	inactive
62	CG11317	DRSC14299	inactive
63	Cam	DRSC07353	inactive
64	Cam	DRSC07354	inactive
65	CG9733	DRSC16549	inactive
66	CG14982	DRSC08440	inactive
67	Skeletor (retired record)	DRSC14905	inactive
68	Skeletor (retired record)	DRSC14906	inactive
69	CG13616	DRSC14619	inactive
70	CG6661	DRSC10687	inactive
71	CG3638	DRSC18533	inactive
72	Su(z)2	DRSC07558	inactive
73	CG6933	DRSC10751	inactive
74	CR31292	DRSC13120	inactive
75	CG5500	DRSC15820	inactive
76	mRpL40	DRSC15749	inactive
77	Iru	DRSC14457	inactive
78	dUTPase	DRSC01998	inactive
79	CG5721	DRSC06945	inactive
80	Vha36-2	DRSC06294	inactive
81	CG17344	DRSC02607	inactive
82	CG2111	DRSC18205	inactive
83	corolla	DRSC20102	inactive
84	Sec5	DRSC00714	inactive
85	CG7326	DRSC20037	inactive
86	CG18428	DRSC15326	inactive
87	CG2991	DRSC00559	inactive
88	VepD	DRSC22318	inactive
89	CG15894	DRSC18098	inactive
90	CG15894	DRSC18099	inactive
91	prim	DRSC06575	inactive
92	CG34178 + CG34177	DRSC00351	inactive
93	CG15905	DRSC06591	inactive
94	CG17233	DRSC10259	inactive
95	SmydA-5	DRSC04867	inactive
96	cv-d	DRSC16522	inactive
97	cv-d	DRSC16524	inactive
98	cv-d	DRSC16526	inactive
99	CG31191	DRSC13455	inactive
100	CG31191	DRSC15214	inactive
101	CG31191	DRSC15215	inactive
102	CG30339	DRSC05168	inactive
103	glob1	DRSC16959	inactive
104	CG42304 + Snup	DRSC08276	inactive
105	CG42304 + Snup	DRSC08277	inactive
106	CG42304 + Snup	DRSC22781	inactive
107	CG14837	DRSC10207	inactive
108	CG12877	DRSC14565	inactive
109	Lcp65Ag3 + Lcp65Ag2 + Lcp65Ag1	DRSC11214	inactive
110	Lcp65Ag3 + Lcp65Ag2 + Lcp65Ag1	DRSC11215	inactive
111	Smug	DRSC15762	inactive
112	Dyrk2	DRSC03610	inactive
113	CG14459	DRSC11719	inactive
114	twin	DRSC15259	inactive
115	twin	DRSC15831	inactive
116	twin	DRSC21363	inactive
117	Nt5c	DRSC06711	inactive
118	DZIP1	DRSC14620	inactive
119	CG4575 (retired record)	DRSC18372	inactive
120	CG12783	DRSC14538	inactive
121	Sodh2	DRSC16865	inactive
122	Rsph9	DRSC01594	inactive
123	Ir7g	DRSC18008	inactive
124	Gclm	DRSC15677	inactive
125	CG33309	DRSC01421	inactive
126	CG34309	DRSC14838	inactive
127	Rpt4	DRSC18713	inactive
128	CG32221	DRSC09638	inactive
129	Vps24	DRSC12332	inactive
130	CG3045	DRSC04331	inactive
131	EndoGI	DRSC01964	inactive
132	CG16972	DRSC02550	inactive
133	spartin	DRSC12187	inactive
134	Mkp + CG34140	DRSC08585	inactive
135	CG15741	DRSC19707	inactive
136	CG13907	DRSC08377	inactive
137	CG12126	DRSC06103	inactive
138	Rbfox1	DRSC09034	inactive
139	Rbfox1	DRSC10157	inactive
140	Rbfox1	DRSC10320	inactive
141	Rbfox1	DRSC21378	inactive
142	Tango11	DRSC03890	inactive
143	Tango11	DRSC03892	inactive
144	Nmda1	DRSC07479	inactive
145	CG42788	DRSC15330	inactive
146	CG42788	DRSC16139	inactive
147	CG42788	DRSC16152	inactive
148	EMC6	DRSC14386	inactive
149	gny	DRSC02810	inactive
150	Efa6	DRSC13569	inactive
151	Efa6	DRSC15312	inactive
152	Efa6	DRSC16141	active
153	CG34242	DRSC09185	inactive
154	FASN1	DRSC00268	inactive
155	Ptpmeg2	DRSC18277	inactive
156	Ptpmeg2	DRSC18278	inactive
157	PH4alphaEFB	DRSC14473	inactive
158	PH4alphaEFB	DRSC14950	inactive

8 entries from above, reformatted.
CG14837 [DRSC10207] — Outcome: inactive
CG12877 [DRSC14565] — Outcome: inactive
Lcp65Ag3 + Lcp65Ag2 + Lcp65Ag1 [DRSC11214] — Outcome: inactive
Lcp65Ag3 + Lcp65Ag2 + Lcp65Ag1 [DRSC11215] — Outcome: inactive
Smug [DRSC15762] — Outcome: inactive
Dyrk2 [DRSC03610] — Outcome: inactive
CG14459 [DRSC11719] — Outcome: inactive
twin [DRSC15259] — Outcome: inactive
